Data published in article PMC5069480.
These are yes or no findings as the source states them, for the method shown. In cells and extracts the contact can be indirect. Tags and fused reporters may be left off the sequences shown.

By UniProt entry, the sequences of proteins in these tests, tags left out. Where a name states a change or a piece, a line headed by the entry shows the natural chain unless it says otherwise.
UniProt Q6AYP5: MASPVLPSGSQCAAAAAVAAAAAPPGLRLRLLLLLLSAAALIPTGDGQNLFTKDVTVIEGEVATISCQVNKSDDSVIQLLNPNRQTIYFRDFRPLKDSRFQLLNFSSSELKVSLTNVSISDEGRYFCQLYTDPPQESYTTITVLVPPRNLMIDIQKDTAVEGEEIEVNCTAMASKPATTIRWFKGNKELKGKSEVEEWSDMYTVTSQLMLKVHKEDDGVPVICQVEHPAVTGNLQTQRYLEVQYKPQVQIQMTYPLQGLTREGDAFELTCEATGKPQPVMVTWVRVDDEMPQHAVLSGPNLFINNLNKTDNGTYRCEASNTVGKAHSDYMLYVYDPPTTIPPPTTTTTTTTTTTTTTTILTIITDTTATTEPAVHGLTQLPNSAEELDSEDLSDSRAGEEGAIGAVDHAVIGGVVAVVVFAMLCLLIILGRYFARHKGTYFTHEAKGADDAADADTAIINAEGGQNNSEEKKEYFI

Target: full-length HA-tagged mutant SynCAM1 (rat) (UniProt Q6AYP5)
Experiment: co-IP; tagged recombinant proteins coexpressed in COS7 cells; lysis in 50 mM Tris pH 7.4, 100 mM NaCl, 1 mM EDTA, 1% Triton-X or 0.1% NP-40; IP with anti-MYC, anti-HA or anti-PSD-95 antibody (mouse IgG as control), protein-G-agarose, 4 °C; western blot

binding: no binding
B1: MYC-tagged full-length mouse MPP2 (MAGUK p55 subfamily member 2) (protein, UniProt Q9WV34-1 1-552)
chain: MPVAATNSESAMQQVLDNLGSLPNATGAAELDLIFLRGIMESPIVRSLAKAHERLEETKLEAVRDNNLELVQEILRDLAELAEQSSTAAELARILQEPHFQSLLETHDSVASKTYETPPPSPGLDPTFSNQPVPPDAVRMVGIRKTAGEHLGVTFRVEGGELVIARILHGGMVAQQGLLHVGDIIKEVNGQPVGSDPRALQELLRSASGSVILKILPSYQEPHLPRQVFVKCHFDYDPARDSLSPCKEAGLRFNAGDLLQIVNQDDANWWQACHVEGGSAGLIPSQLLEEKRKAFVKRDLELTPTSGTLCGSLSGKKKKRMMYLTTKNAEFDRHELLIYEEVARMPPFRRKTLVLIGAQGVGRRSLKNKLILWDPDRYGTTVPYTSRRPKDSEREGQGYSFVSRGEMEADIRAGRYLEHGEYEGNLYGTRIDSIRGVVASGKVCVLDVNPQAVKVLRTAEFVPYVVFIEAPDYETLRAMNRAALESGVSTKQLTEADLRRTVEESSRIQRGYGHYFDLSLVNSNLERTFRELQTAMEKLRTEPQWVPVSWVY
